40 targets from the supplement of paper PMC10849652 can be followed below.

Protein sequences, listed by entry. Tags and fused reporters are not part of them. Lines headed by an entry give the natural chain unless they say otherwise; changes in a name come on top.
UniProt Q92843: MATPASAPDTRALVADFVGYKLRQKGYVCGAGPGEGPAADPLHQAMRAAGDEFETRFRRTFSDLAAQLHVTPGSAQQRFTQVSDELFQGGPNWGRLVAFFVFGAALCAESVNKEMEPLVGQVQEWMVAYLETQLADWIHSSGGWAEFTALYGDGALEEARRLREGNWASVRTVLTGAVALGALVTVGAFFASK
UniProt Q9UHR4: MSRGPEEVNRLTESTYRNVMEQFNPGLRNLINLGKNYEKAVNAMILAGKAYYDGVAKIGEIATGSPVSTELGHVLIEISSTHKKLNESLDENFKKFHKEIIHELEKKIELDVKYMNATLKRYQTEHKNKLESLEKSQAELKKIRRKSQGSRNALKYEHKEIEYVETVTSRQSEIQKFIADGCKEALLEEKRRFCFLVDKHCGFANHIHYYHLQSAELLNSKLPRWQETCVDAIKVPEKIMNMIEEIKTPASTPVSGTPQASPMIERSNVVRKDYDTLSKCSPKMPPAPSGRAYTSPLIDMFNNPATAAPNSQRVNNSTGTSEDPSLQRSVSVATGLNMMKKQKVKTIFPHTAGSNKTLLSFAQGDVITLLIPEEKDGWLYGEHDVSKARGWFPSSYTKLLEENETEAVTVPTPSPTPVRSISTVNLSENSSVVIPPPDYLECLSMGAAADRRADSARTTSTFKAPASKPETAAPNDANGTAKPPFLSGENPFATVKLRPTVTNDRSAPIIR
UniProt Q9P287, whole entry, looked up: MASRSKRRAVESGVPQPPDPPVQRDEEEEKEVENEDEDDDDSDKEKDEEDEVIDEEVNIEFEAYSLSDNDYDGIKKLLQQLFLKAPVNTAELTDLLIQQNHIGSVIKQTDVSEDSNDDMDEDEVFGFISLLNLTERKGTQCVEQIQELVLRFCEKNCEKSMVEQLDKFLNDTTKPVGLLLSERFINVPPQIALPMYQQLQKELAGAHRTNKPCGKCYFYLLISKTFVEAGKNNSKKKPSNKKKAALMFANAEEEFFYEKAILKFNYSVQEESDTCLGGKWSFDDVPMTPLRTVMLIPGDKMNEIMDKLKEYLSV
UniProt Q8TD16, whole entry, looked up: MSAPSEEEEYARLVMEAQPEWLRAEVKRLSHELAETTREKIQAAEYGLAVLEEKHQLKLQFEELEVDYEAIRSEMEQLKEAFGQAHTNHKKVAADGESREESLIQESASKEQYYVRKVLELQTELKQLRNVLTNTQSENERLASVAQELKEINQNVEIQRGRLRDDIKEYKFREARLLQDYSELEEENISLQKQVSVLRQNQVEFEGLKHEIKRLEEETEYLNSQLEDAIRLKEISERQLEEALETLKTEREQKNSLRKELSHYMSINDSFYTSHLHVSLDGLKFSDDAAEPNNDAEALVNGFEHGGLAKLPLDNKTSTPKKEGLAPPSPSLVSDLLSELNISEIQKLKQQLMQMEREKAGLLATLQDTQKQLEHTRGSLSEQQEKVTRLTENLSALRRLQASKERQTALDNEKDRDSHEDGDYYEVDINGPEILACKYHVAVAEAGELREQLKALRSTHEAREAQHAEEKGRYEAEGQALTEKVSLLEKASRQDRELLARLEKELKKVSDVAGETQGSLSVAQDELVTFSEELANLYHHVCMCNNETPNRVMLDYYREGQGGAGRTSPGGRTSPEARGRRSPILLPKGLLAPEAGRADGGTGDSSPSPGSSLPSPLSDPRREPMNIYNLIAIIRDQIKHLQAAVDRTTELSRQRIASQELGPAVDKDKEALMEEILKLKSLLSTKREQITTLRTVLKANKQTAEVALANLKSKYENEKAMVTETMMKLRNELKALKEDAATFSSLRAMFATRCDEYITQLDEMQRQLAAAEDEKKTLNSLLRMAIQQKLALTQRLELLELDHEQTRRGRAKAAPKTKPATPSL
UniProt P46379: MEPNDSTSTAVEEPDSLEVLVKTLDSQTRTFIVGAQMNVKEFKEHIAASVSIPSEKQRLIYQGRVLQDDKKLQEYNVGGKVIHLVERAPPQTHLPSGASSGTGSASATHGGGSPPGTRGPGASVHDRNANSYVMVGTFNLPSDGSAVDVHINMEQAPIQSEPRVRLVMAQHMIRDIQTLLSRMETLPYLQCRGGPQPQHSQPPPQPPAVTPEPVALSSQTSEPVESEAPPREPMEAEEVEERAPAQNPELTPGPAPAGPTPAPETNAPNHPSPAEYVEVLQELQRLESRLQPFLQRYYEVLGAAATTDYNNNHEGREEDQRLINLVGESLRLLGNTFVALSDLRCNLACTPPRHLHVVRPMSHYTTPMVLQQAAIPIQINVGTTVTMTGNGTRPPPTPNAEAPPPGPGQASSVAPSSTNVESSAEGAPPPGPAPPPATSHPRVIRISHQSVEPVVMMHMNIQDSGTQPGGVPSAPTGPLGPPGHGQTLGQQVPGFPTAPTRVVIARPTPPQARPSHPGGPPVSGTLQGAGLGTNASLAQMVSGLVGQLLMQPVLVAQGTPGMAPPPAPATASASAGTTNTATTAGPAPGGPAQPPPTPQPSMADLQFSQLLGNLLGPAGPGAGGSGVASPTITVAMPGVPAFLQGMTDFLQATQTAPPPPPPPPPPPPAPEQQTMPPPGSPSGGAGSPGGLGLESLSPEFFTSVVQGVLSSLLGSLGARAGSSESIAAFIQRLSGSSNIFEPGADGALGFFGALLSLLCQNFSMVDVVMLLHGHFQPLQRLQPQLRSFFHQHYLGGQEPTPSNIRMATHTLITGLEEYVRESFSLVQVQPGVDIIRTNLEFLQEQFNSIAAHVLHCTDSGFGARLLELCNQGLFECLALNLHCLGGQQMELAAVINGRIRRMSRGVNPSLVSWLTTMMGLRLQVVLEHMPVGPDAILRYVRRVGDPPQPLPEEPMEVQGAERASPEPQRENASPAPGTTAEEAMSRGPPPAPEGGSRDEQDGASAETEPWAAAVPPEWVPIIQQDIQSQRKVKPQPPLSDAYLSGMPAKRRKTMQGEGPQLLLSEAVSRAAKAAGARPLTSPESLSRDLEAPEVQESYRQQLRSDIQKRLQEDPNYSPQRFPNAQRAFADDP
UniProt Q8WWM7: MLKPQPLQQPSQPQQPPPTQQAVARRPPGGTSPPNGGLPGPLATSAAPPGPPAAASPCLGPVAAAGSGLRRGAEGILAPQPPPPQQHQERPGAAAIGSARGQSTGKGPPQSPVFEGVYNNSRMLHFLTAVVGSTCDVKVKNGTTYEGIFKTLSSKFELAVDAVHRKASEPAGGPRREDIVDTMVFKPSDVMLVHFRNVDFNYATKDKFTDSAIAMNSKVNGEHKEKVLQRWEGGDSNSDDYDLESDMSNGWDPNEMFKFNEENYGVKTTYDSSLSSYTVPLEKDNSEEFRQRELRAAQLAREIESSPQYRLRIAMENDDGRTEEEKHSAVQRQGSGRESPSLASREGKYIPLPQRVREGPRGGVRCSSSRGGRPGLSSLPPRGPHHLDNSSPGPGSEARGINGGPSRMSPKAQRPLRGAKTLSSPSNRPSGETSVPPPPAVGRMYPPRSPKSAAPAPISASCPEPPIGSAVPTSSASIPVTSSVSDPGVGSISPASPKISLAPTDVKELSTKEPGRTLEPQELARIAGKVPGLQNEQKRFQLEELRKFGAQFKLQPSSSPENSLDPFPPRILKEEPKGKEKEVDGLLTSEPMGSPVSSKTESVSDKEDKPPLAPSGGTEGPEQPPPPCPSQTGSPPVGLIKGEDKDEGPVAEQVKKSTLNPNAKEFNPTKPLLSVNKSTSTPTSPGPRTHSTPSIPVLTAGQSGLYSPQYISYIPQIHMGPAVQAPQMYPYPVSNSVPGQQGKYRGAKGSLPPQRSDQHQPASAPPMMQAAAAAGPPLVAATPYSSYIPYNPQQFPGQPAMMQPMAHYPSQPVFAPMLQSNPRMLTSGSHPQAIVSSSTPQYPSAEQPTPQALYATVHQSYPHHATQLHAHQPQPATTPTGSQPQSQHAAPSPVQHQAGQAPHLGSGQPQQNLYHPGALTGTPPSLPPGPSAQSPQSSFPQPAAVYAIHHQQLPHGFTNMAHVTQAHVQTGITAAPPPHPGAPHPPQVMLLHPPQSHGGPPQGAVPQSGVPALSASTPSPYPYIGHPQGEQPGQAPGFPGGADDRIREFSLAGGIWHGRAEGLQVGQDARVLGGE
UniProt Q67FW5: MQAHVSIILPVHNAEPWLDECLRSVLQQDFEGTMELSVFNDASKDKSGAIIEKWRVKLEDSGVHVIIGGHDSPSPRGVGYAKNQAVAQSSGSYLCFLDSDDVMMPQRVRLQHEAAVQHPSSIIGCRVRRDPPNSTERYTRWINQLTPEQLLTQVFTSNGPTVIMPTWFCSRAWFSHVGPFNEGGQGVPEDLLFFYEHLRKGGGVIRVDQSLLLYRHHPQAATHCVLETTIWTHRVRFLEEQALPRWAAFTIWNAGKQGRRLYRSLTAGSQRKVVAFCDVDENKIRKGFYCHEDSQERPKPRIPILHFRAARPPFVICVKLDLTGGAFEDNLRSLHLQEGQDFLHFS
UniProt Q14137: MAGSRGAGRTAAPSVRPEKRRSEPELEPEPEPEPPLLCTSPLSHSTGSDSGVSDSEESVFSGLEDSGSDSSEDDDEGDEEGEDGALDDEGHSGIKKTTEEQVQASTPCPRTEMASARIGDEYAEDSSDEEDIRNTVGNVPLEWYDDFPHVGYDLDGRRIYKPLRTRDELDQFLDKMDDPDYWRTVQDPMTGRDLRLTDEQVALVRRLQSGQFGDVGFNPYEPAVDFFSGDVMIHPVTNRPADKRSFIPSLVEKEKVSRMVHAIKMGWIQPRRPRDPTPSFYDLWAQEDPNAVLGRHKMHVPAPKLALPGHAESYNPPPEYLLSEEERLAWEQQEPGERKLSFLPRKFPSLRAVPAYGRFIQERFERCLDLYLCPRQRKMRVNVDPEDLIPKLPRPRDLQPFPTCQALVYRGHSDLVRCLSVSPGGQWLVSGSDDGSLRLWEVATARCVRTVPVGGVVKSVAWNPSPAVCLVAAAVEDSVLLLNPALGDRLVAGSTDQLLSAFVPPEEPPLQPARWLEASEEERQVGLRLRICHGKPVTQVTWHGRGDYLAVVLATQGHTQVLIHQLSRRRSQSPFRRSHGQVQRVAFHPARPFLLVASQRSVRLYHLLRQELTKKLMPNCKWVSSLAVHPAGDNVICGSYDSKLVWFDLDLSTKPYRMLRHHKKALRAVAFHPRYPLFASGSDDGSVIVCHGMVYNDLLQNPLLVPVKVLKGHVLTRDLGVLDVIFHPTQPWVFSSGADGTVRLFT
UniProt O60512: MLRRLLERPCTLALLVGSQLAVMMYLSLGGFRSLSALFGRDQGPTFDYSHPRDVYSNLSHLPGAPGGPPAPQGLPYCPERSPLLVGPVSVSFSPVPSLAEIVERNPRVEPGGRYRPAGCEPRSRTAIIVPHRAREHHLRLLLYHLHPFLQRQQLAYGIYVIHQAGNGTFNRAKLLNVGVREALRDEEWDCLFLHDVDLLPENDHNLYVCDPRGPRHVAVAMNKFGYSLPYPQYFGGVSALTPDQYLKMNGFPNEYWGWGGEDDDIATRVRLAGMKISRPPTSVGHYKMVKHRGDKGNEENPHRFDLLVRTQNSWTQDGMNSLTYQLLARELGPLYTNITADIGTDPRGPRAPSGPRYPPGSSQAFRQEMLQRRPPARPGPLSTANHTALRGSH
UniProt Q8NBF6: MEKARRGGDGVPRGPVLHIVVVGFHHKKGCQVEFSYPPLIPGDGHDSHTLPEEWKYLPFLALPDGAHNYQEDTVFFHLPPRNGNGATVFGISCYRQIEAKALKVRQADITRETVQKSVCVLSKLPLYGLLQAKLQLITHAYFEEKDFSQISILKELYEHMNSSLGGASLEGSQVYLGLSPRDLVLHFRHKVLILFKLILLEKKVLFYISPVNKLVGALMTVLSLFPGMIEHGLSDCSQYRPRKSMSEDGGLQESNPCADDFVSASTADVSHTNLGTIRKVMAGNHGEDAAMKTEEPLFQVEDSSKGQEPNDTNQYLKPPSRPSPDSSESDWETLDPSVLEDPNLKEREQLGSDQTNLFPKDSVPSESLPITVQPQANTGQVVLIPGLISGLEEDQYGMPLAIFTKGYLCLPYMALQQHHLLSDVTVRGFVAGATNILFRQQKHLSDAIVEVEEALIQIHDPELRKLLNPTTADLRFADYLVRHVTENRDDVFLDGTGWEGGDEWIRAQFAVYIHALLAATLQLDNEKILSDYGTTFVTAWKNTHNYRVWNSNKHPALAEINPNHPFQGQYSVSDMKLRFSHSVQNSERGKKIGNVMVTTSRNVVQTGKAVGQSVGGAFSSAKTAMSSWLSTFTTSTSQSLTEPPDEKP
UniProt O14965: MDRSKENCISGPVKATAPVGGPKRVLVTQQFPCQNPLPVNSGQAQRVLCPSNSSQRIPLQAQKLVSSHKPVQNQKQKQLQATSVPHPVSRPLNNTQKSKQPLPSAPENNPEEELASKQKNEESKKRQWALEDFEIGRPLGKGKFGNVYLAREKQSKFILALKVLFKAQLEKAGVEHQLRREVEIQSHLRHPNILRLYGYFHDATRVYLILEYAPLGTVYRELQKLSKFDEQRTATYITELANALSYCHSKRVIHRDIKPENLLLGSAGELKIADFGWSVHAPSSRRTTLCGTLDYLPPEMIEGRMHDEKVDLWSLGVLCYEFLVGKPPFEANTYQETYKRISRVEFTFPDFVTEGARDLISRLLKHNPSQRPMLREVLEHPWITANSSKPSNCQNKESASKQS

The other results are listed elsewhere or left out.

Compound in one experiment: C1=CC=C(C=C1)C2=NC(=C(N2)C3=CC=NC=C3)C4=CC(=C(C=C4)Cl)O
The experiment can be described thus: log2 fold change, soluble protein after heating vs DMSO (PISA); higher = thermal stabilisation; K562 cells, 10 uM, 30 min; active = over 0.2 and 3.5 SD of the protein, either way, in both replicates (recomputed). In short, it runs like this: (§1)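 K562 cells at 2×10^6 cells/mL were treated with 10 μM compound for 30 min. Aliquots were heated for 3 min across 48°C-58°C, pooled, and extracted in PBS with 0.5% NP-40 at 4°C; soluble protein was the supernatant after 21,000xg for 90 min. Soluble protein was quantified by TMTpro 16plex LC-MS/MS with channel sums equalised, and reported as log2 fold change in thermal stability against DMSO controls, with values from duplicates.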
Turning to ATXN2 (UniProt Q99700), the log2 fold change was inactive: 0.014.

With BCAR1 isoform 6 (UniProt P56945), the log2 fold change was inactive: -0.068.

For the target BPGM (UniProt P07738), the log2 fold change is inactive: 0.036.

Consider BRAP (UniProt Q7Z569), for which the log2 fold change was inactive: 0.172.

In the case of BAX isoform 2 (UniProt Q07812), the log2 fold change was inactive: -0.002.

With BPHL (UniProt Q86WA6), the log2 fold change was inactive: -0.028.

As to BCL2L2 isoform 2 (UniProt Q92843), the log2 fold change is inactive: -0.017.

Consider BACH1 (UniProt O14867), for which the log2 fold change is inactive: -0.048.

For BAIAP2L1 (UniProt Q9UHR4), the log2 fold change was inactive: -0.058.

For the target BCCIP (UniProt Q9P287), the log2 fold change was inactive: 0.013.

Regarding BLOC1S4 (UniProt Q9NUP1), the log2 fold change was inactive: 0.034.

As to BICD2 isoform 2 (UniProt Q8TD16), the log2 fold change is inactive: 0.034.

Consider BAG6 isoform 3 (UniProt P46379), for which the log2 fold change was inactive: -0.016.

BRIX1 (UniProt Q8TDN6): the log2 fold change is inactive: -0.046.

In the case of AUP1 (UniProt Q9Y679), the log2 fold change is inactive: 0.078.

For B4GALT1 (UniProt P15291), the log2 fold change is inactive: -0.035.

As to BIRC2 (UniProt Q13490), the log2 fold change was inactive: -0.093.

Consider ATXN7L3B (UniProt Q96GX2), for which the log2 fold change was inactive: -0.002.

ATXN2L (UniProt Q8WWM7): the log2 fold change is inactive: -0.011.

As to BORCS5 (UniProt Q969J3), the log2 fold change was inactive: 0.024.

On to B3GAT3 (UniProt O94766), for which the log2 fold change was inactive: 0.051.

As for BNIP2 (UniProt J3KN59), the log2 fold change was inactive: -0.072.

On to B3GNTL1 (UniProt Q67FW5), for which the log2 fold change is inactive: -0.051.

Take BCAS2 (UniProt O75934): the log2 fold change was inactive: 0.053.

With BLOC1S6 (UniProt Q9UL45), the log2 fold change is inactive: -0.03.

With BLVRA (UniProt P53004), the log2 fold change is inactive: 0.011.

Turning to BOP1 (UniProt Q14137), the log2 fold change is inactive: -0.153.

Take BCS1L (UniProt Q9Y276): the log2 fold change is inactive: -0.025.

Take BRCC3 (UniProt P46736): the log2 fold change is inactive: 0.006.

For the target BCCIP isoform 2 (UniProt Q9P287), the log2 fold change was inactive: 0.012.

On to BOD1L1 (UniProt Q8NFC6), for which the log2 fold change was inactive: -0.047.

For B3GNT2 (UniProt Q9NY97), the log2 fold change was inactive: 0.054.

B4GALT3 (UniProt O60512): the log2 fold change is inactive: 0.028.

Turning to AVL9 (UniProt Q8NBF6), the log2 fold change was inactive: -0.005.

In the case of BAP1 (UniProt Q92560), the log2 fold change was inactive: -0.104.

As to BLOC1S2 (UniProt Q6QNY1), the log2 fold change was inactive: 0.01.

For the target BCAP29 isoform 2 (UniProt Q9UHQ4), the log2 fold change is inactive: -0.034.

BRAT1 (UniProt Q6PJG6): the log2 fold change is inactive: 0.028.

As to BORCS6 (UniProt Q96GS4), the log2 fold change is inactive: -0.023.

As to AURKA (UniProt O14965), the log2 fold change is inactive: 0.028.

Compound in the next experiment: C1=CC=C2C(=C1)C3=NNC4=CC=CC(=C43)C2=O
The experiment is described as above. The gist of the method:
as §1
For ATXN2 (UniProt Q99700), the log2 fold change is inactive: -0.026.

Turning to BCAR1 isoform 6 (UniProt P56945), the log2 fold change is inactive: -0.038.

For BPGM (UniProt P07738), the log2 fold change was inactive: -0.033.

As to BRAP (UniProt Q7Z569), the log2 fold change is inactive: -0.023.

Regarding BAX isoform 2 (UniProt Q07812), the log2 fold change was inactive: 0.052.

In the case of BPHL (UniProt Q86WA6), the log2 fold change is inactive: 0.02.

With BCL2L2 isoform 2 (UniProt Q92843), the log2 fold change was inactive: -0.048.

As to BACH1 (UniProt O14867), the log2 fold change was inactive: -0.052.

As for BAIAP2L1 (UniProt Q9UHR4), the log2 fold change was inactive: -0.025.

As to BCCIP (UniProt Q9P287), the log2 fold change was inactive: 0.035.

For BLOC1S4 (UniProt Q9NUP1), the log2 fold change is inactive: -0.038.

For the target BICD2 isoform 2 (UniProt Q8TD16), the log2 fold change is inactive: 0.007.

With BAG6 isoform 3 (UniProt P46379), the log2 fold change was inactive: -0.043.

In the case of BRIX1 (UniProt Q8TDN6), the log2 fold change is inactive: -0.167.

In the case of AUP1 (UniProt Q9Y679), the log2 fold change is inactive: 0.004.

Consider B4GALT1 (UniProt P15291), for which the log2 fold change is inactive: 0.024.

As to BIRC2 (UniProt Q13490), the log2 fold change was inactive: -0.029.

ATXN7L3B (UniProt Q96GX2): the log2 fold change was inactive: 0.021.

For ATXN2L (UniProt Q8WWM7), the log2 fold change is inactive: -0.023.

Regarding BORCS5 (UniProt Q969J3), the log2 fold change is inactive: -0.012.

On to B3GAT3 (UniProt O94766), for which the log2 fold change is inactive: 0.057.

Consider BNIP2 (UniProt J3KN59), for which the log2 fold change was inactive: -0.024.

On to B3GNTL1 (UniProt Q67FW5), for which the log2 fold change is inactive: -0.101.

Regarding BCAS2 (UniProt O75934), the log2 fold change is inactive: -0.066.

In the case of BLOC1S6 (UniProt Q9UL45), the log2 fold change was inactive: -0.035.

On to BLVRA (UniProt P53004), for which the log2 fold change was inactive: 0.023.

In the case of BOP1 (UniProt Q14137), the log2 fold change was inactive: -0.014.

Take BCS1L (UniProt Q9Y276): the log2 fold change is inactive: -0.016.

For the target BRCC3 (UniProt P46736), the log2 fold change was inactive: -0.016.

Turning to BCCIP isoform 2 (UniProt Q9P287), the log2 fold change is inactive: -0.007.

Turning to BOD1L1 (UniProt Q8NFC6), the log2 fold change was inactive: -0.04.

B3GNT2 (UniProt Q9NY97): the log2 fold change is inactive: 0.009.

Turning to B4GALT3 (UniProt O60512), the log2 fold change was inactive: -0.066.

AVL9 (UniProt Q8NBF6): the log2 fold change was inactive: 0.003.

For the target BAP1 (UniProt Q92560), the log2 fold change is inactive: -0.05.

Regarding BLOC1S2 (UniProt Q6QNY1), the log2 fold change was inactive: -0.036.

On to BCAP29 isoform 2 (UniProt Q9UHQ4), for which the log2 fold change was inactive: 0.038.

In the case of BRAT1 (UniProt Q6PJG6), the log2 fold change is inactive: 0.081.

On to BORCS6 (UniProt Q96GS4), for which the log2 fold change was inactive: -0.008.

As to AURKA (UniProt O14965), the log2 fold change was inactive: 0.462.
